Results deposited as PubChem BioAssay AID1053208 (Peter MacCallum Cancer Centre, 2014).
The deposit covers about 17,000 reagents; shown is an unselected part. In the full data, 788 (4.7%) are marked active. 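Calls rest on z-score classes alone; an extra cut-off of viability at most 70% of control was not applied to them.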

Screen: 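Genes whose silencing cuts survival of bone tumour cells only with doxorubicin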 (primary screen)
Cell system: mouse osteosarcoma cells, early-passage culture from an engineered mouse model of fibroblastic bone tumour
Reagents: siRNA pool against mouse genes, 40 nM
Duration: about 120 h (48 h before drug, then 72 h with drug)
Treatment: doxorubicin 100 nM for 72 h, roughly 30-40% inhibitory dose
Detection: 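Luminescent ATP signal taken as viability with or without 100 nM doxorubicin for 72 h; mean of two wells set against non-targeting siRNA and turned into robust z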
Scale: viability z-score with doxorubicin and doxorubicin viability vs non-targeting: higher = more viable cells under doxorubicin; viability z-score without drug: higher = more viable cells with knock-down alone; z-score of drug to no-drug ratio: higher = less drug sensitisation by knock-down
Hit rule: 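Called active if knock-down leaves viability unchanged without drug (z within -2 to 2) but lowers it with doxorubicin (z at or under -2)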

| Target gene | combined z-score class | viability z-score with doxorubicin | viability z-score without drug | z-score of drug to no-drug ratio | doxorubicin viability vs non-targeting | Outcome |
| --- | --- | --- | --- | --- | --- | --- |
| Chmp1a | low cell count with doxorubicin only | -4.72 | -0.17 | -4.83 | 0.52 | active |
| Or13p5 | no change with or without drug | 0.79 | 0.84 | 0.34 | 1.01 | inactive |
| Riok1 | no change with or without drug | -0.67 | 0.67 | -1.01 | 0.88 | inactive |
| Slco1a4 | no change with or without drug | 1.35 | 0.67 | 1.01 | 1.06 | inactive |
| Slc16a11 | no change with or without drug | -1.12 | -0.84 | -0.56 | 0.84 | inactive |
| D930030K17Rik | no change with or without drug | -0.22 | -0.51 | 0.22 | 0.92 | inactive |
| Slc4a1ap | no change with or without drug | 0.11 | 0.34 | 0 | 0.95 | inactive |
| Mapk4 | no change with or without drug | 1.69 | 0.67 | 1.35 | 1.09 | inactive |
| Tyk2 | no change with or without drug | -0.67 | 1.18 | -1.35 | 0.88 | inactive |
| Kyat3 | no change with or without drug | 0.9 | -0.67 | 1.57 | 1.02 | inactive |
| Osbpl9 | low cell count with doxorubicin only | -2.7 | -1.18 | -2.02 | 0.7 | active |
| Wwp2 | no change with or without drug | -0.45 | -0.84 | 0.22 | 0.9 | inactive |
| Anks1 | no change with or without drug | 0.9 | 0.17 | 0.9 | 1.02 | inactive |
| Bop1 | low cell count without drug only | -0.9 | -4.05 | 2.59 | 0.86 | inactive |

Copied from the entries so far, 6 entries:
| Target gene | combined z-score class | viability z-score with doxorubicin | viability z-score without drug | z-score of drug to no-drug ratio | doxorubicin viability vs non-targeting | Outcome |
| --- | --- | --- | --- | --- | --- | --- |
| Mapk4 | no change with or without drug | 1.69 | 0.67 | 1.35 | 1.09 | inactive |
| Tyk2 | no change with or without drug | -0.67 | 1.18 | -1.35 | 0.88 | inactive |
| Kyat3 | no change with or without drug | 0.9 | -0.67 | 1.57 | 1.02 | inactive |
| Osbpl9 | low cell count with doxorubicin only | -2.7 | -1.18 | -2.02 | 0.7 | active |
| Wwp2 | no change with or without drug | -0.45 | -0.84 | 0.22 | 0.9 | inactive |
| Anks1 | no change with or without drug | 0.9 | 0.17 | 0.9 | 1.02 | inactive |

More reagents follow:
| Target gene | combined z-score class | viability z-score with doxorubicin | viability z-score without drug | z-score of drug to no-drug ratio | doxorubicin viability vs non-targeting | Outcome |
| --- | --- | --- | --- | --- | --- | --- |
| Mtnap1 | no change with or without drug | 0.34 | 0.84 | -0.11 | 0.97 | inactive |
| Atad3aos | no change with or without drug | 0.9 | 0.84 | 0.45 | 1.02 | inactive |
| Asah2 | no change with or without drug | -0.11 | 0.17 | -0.11 | 0.93 | inactive |
| Nmrk1 | no change with or without drug | 0.79 | 1.52 | -0.11 | 1.01 | inactive |
| Mmp10 | no change with or without drug | -0.79 | -0.51 | -0.34 | 0.87 | inactive |
| Azi2 | no change with or without drug | 0.56 | -1.01 | 1.46 | 0.99 | inactive |
| Asns | no change with or without drug | -0.22 | -0.84 | 0.45 | 0.92 | inactive |
| Saa1 | no change with or without drug | 1.12 | -0.51 | 1.69 | 1.04 | inactive |
| Trappc9 | low cell count with doxorubicin only | -2.14 | 1.52 | -2.92 | 0.75 | active |
| Zbtb8os | no change with or without drug | -0.9 | -0.17 | -0.79 | 0.86 | inactive |
| Toporsl | high cell count with doxorubicin only | 2.36 | 1.52 | 1.46 | 1.15 | inactive |
| Kif11 | no change with or without drug | -1.35 | -1.85 | 0 | 0.82 | inactive |
| Pola2 | no change with or without drug | 0.45 | -0.84 | 1.24 | 0.98 | inactive |
| 4921517D22Rik | no change with or without drug | 0.9 | 1.18 | 0.22 | 1.02 | inactive |
| Tas2r131 | no change with or without drug | -0.67 | -0.17 | -0.45 | 0.88 | inactive |
| Mfsd1 | no change with or without drug | -1.24 | 1.01 | -1.8 | 0.83 | inactive |
| Ebi3 | no change with or without drug | 0.22 | 1.18 | -0.45 | 0.96 | inactive |
| Ints4 | no change with or without drug | 0.34 | -0.51 | 0.79 | 0.97 | inactive |
| Gfra2 | no change with or without drug | -1.12 | -1.18 | -0.34 | 0.84 | inactive |
| Kcnc4 | no change with or without drug | -0.45 | -0.34 | -0.11 | 0.9 | inactive |
